Measured values: publication doi:10.1101/2025.04.11.648320 (bioRxiv, 2025)

Sequences of proteins named here, by UniProt entry; tags and fusion partners are left off. A change or cut given only in a name is not applied to a line headed by its entry.
UniProt Q9SRH6: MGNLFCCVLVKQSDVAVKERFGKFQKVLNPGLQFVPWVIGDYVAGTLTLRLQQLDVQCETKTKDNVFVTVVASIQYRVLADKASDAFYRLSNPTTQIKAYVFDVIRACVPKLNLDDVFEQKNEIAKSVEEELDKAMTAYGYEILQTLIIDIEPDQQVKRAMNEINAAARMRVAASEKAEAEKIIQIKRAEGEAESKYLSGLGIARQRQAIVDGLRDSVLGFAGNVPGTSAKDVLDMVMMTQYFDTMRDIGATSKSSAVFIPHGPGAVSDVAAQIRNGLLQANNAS

Columns and labels:
[1] = target: T1, BAK1-GFP expressed in Arabidopsis protoplasts (Arabidopsis thaliana) (UniProt Q94F62); assay: co-IP
T1 sequence: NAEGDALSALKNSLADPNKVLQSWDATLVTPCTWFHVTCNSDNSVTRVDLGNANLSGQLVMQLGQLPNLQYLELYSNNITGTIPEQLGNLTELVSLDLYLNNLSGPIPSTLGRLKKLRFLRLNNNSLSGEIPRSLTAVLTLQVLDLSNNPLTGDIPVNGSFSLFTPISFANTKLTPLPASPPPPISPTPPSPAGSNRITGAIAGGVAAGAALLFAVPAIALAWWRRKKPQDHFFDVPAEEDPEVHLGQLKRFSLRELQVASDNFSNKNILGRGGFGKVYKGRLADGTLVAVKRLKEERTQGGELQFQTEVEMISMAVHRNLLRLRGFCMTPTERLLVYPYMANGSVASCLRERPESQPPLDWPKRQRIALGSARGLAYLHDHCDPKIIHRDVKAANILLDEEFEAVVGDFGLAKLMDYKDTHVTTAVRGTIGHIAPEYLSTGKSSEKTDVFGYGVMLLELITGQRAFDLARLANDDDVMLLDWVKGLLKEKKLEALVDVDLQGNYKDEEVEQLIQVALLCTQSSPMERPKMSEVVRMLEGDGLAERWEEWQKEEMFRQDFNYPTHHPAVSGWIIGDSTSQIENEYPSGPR

[2] = target: HIR2, mating-based split-ubiquitin (mbSUS) fusion (Arabidopsis thaliana) (UniProt Q9SRH6); assay: two-hybrid

binding [1]: binds
Molecule: HIR2-HA expressed in Arabidopsis protoplasts (from UniProt Q9SRH6)

binding [2]: binds
B1: CERK1, mating-based split-ubiquitin (mbSUS) fusion (receptor, UniProt A8R7E6 24-617)
chain: KCRTSCPLALASYYLENGTTLSVINQNLNSSIAPYDQINFDPILRYNSNIKDKDRIQMGSRVLVPFPCECQPGDFLGHNFSYSVRQEDTYERVAISNYANLTTMESLQARNPFPATNIPLSATLNVLVNCSCGDESVSKDFGLFVTYPLRPEDSLSSIARSSGVSADILQRYNPGVNFNSGNGIVYVPGRDPNGAFPPFKSSKQDGVGAGVIAGIVIGVIVALLLILFIVYYAYRKNKSKGDSFSSSIPLSTKADHASSTSLQSGGLGGAGVSPGIAAISVDKSVEFSLEELAKATDNFNLSFKIGQGGFGAVYYAELRGEKAAIKKMDMEASKQFLAELKVLTRVHHVNLVRLIGYCVEGSLFLVYEYVENGNLGQHLHGSGREPLPWTKRVQIALDSARGLEYIHEHTVPVYVHRDIKSANILIDQKFRAKVADFGLTKLTEVGGSATRGAMGTFGYMAPETVYGEVSAKVDVYAFGVVLYELISAKGAVVKMTEAVGEFRGLVGVFEESFKETDKEEALRKIIDPRLGDSYPFDSVYKMAELGKACTQENAQLRPSMRYIVVALSTLFSSTGNWDVGNFQNEDLVSLMSGR

binding [2]: binds
B2: BAK1, mating-based split-ubiquitin (mbSUS) fusion (receptor, UniProt Q94F62 26-615)
chain: T1 sequence

No constants are given. Whether binding was seen depends on the method and setting. Binding calls can cover weak binding; strength is not graded here. Sequences can lack the tags named with a protein. For part of these data: Binding seen in cells or lysates may run through a third protein. Each block holds one molecule with its values, some of them ahead of it.
